In patent US20130310313A1 one finds binding data, which are given here for five molecules.

By UniProt entry, the sequences of proteins in these tests, tags left out. Residues count along the entry.
UniProt P06213, residues 28-1382: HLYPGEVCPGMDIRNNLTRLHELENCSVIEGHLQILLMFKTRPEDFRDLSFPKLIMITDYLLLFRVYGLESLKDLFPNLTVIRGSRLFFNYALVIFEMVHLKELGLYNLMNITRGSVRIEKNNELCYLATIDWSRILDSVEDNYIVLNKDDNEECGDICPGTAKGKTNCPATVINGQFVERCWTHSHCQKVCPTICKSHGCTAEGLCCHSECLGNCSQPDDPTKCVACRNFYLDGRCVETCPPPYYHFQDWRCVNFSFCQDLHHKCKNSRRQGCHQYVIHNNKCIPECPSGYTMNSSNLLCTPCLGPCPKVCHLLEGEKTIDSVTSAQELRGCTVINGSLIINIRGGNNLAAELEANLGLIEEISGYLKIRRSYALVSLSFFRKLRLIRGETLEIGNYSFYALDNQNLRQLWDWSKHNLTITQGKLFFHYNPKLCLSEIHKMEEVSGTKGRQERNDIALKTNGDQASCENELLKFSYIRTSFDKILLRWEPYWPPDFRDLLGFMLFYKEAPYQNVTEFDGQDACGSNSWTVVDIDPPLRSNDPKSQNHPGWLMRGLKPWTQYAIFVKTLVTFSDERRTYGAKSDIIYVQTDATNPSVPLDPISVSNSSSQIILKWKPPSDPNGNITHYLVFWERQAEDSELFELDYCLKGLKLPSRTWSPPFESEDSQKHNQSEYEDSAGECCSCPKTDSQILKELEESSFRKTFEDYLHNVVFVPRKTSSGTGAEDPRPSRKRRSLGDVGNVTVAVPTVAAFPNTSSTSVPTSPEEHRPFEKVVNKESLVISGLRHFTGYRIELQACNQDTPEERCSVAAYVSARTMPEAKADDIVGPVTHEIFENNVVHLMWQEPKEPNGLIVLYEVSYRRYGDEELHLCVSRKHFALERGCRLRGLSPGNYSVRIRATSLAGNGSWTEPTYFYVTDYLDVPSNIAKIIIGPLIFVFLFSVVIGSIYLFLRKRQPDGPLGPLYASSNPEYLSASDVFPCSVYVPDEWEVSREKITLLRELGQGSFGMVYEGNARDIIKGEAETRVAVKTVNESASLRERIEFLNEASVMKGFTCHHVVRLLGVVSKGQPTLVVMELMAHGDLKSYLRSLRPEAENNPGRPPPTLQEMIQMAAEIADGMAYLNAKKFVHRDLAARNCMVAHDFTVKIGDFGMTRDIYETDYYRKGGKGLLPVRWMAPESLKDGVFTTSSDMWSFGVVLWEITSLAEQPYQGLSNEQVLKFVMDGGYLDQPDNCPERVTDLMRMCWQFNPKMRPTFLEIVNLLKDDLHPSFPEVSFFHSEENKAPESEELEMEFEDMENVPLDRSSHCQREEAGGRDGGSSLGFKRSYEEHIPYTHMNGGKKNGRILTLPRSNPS

No constants are given. Whether binding was seen depends on the method and setting. Some results given as binding are weak or reduced against the parent protein; the word gives no strength.

Assay [1] concerns the target insulin receptor on human lymphocyte cells (IM-9) (human) (UniProt P06213). As to the kind of experiment: whole cell receptor binding assay on IM-9 cells with 125I-insulin.
The target is the same in assay [2]. As to the kind of experiment: insulin receptor autophosphorylation in IM-9 cells, taken by the filing as a sign of binding.

B1: IRBP-1-68 polypeptide (SEQ ID NO:1) (peptide)
chain: SRCQGKSSWPQLVGSTGAAAKAVIERENPRVRAVIIKVGSGATKDFRCDRVRVWVTERGIVARPPTIG
On to B1, for which the binding result in assay [1] and in assay [2] was “binds” each time.
On to IVARPPTIG [IRBP-60-68 (SEQ ID NO:7)], for which the binding result in assay [1] is given as “binds”.
In the case of SRCQGKSSWPGLVGSTGAA [IRBP-1-19 (SEQ ID NO:2)], in assay [1], the binding entry is “binds”.
On the same count and under the same terms, to RVRVWVTERGIVARPPTIG [IRBP-50-68 (SEQ ID NO:6)] belongs “binds”.
As for IVARPPAIG [IRBP-MC (SEQ ID NO:21)], the binding entry in assay [1] is “binds”.
